PubChem BioAssay AID1159584 – Peter MacCallum Cancer Centre – 2016
In all, the deposit lists about 18,000 reagents; shown is an unselected part. Not all columns of the deposit are shown. No sequences are given here. Not stated in the record: the amount of reagent, the time to read-out.

Purpose: 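Genes whose loss is lethal only together with E-cadherin loss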 (primary screen)
Cell system: human MCF10A breast epithelial cells, parental and CDH1-null
Reagent: siRNA against human genes
Measurement: 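ATP luminescence (CellTiter-Glo) viability per line relative to mean mock wells over all plates, and the ratio of CDH1-null to parental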
Reading the numbers: CDH1-null / parental viability ratio: higher = CDH1-null cells survive relatively better than parental

gene symbol,PubChem SID,CDH1-null / parental viability ratio
SLC25A19,SID135621380,0.98
MRC2,SID152150771,1.02
SEMA3G,SID134324154,0.96
LRP8,SID135622201,0.95
SHMT1,SID134310554,1.15
KCNG3,SID134311648,1.22
OR13C3,SID152150911,0.89
RAB34,SID134314453,0.94
MAGEA3,SID135620927,0.98
SKP1,SID152153010,0.86
GZMB,SID135621094,1
COQ10A,SID152154147,1.03
COL9A2,SID134315950,1.26
NFKBID,SID135620797,0.91
ZNF341,SID134319312,1.02
ABO,SID135622342,0.79
XRN2,SID152150786,0.93
ING4,SID135621284,0.67
PLOD2,SID152154480,0.83
CHMP6,SID135620929,0.87
TOP2A,SID152154743,1.09
DPM1,SID135622142,1.02
DNASE1L1,SID152155310,1.09
INTS6L,SID152154800,1.3
FBXO11,SID134316700,1.02
PTAFR,SID134311140,1.45
COMTD1,SID135623581,1.09
DPP4,SID135620788,1.02
LIMA1,SID152152401,0.95
C5orf34,SID134329330,0.99
PANK2,SID152147442,1.01
OSMR,SID152149852,0.96
ORMDL3,SID134320967,1.13
UBE2O,SID152151746,1.25
TIMP4,SID134315748,1.11
ASNSD1,SID134324183,0.98
RBBP8NL,SID134319325,0.98
CSPG4,SID152149844,1.02
PTMA,SID134310805,0.84
PPP1R12C,SID152155071,1.16
CDH24,SID134322811,1.26
ATP5PB,SID152153332,1.25
RND1,SID135621679,0.96
STK11IP,SID135622899,0.99
HMGB2,SID135622178,1.11
MAPK8IP3,SID152155657,1.08
REST,SID152153863,0.92
LRRC3,SID134318767,0.92
DEFB105A,SID134320594,0.92
UROS,SID152149712,0.82
CR1,SID152156022,1.02
CENPN,SID135623038,1.6
FANK1,SID135623015,1.07
ZNF175,SID135624197,1.12
CTTNBP2NL,SID134318037,0.97
RNASEH2A,SID152152207,1.3
RPS7,SID152151845,1.43
TRIM56,SID134312202,0.73
TCF15,SID134314733,1.11
RBM47,SID152150867,0.97
POLRMT,SID152156708,0.98
INPP5B,SID152149414,1.07
RASEF,SID135623204,0.96
RRP8,SID134318216,1.03
MPLKIP,SID134320375,1.1
TSC22D3,SID135624205,1.21
OR51T1,SID152151544,0.91
LETM2,SID152150674,1.08
